This passage reports binding results from patent publication US20160185832A1.

The chains behind the UniProt entries cited, without tags or fusion partners. Where a name states a change or a piece, a line headed by the entry shows the natural chain unless it says otherwise.
UniProt P81947: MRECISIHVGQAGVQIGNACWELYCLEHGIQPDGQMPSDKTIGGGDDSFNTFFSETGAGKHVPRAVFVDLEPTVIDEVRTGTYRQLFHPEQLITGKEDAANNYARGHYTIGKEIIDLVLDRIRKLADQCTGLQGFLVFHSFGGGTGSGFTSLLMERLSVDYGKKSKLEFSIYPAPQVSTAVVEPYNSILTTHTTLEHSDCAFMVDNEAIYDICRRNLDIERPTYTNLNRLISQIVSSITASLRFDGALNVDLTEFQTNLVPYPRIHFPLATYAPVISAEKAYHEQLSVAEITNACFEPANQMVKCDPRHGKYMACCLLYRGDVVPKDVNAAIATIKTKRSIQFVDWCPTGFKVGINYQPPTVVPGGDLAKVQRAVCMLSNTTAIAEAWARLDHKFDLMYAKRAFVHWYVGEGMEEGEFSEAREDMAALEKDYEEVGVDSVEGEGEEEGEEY
UniProt Q6B856: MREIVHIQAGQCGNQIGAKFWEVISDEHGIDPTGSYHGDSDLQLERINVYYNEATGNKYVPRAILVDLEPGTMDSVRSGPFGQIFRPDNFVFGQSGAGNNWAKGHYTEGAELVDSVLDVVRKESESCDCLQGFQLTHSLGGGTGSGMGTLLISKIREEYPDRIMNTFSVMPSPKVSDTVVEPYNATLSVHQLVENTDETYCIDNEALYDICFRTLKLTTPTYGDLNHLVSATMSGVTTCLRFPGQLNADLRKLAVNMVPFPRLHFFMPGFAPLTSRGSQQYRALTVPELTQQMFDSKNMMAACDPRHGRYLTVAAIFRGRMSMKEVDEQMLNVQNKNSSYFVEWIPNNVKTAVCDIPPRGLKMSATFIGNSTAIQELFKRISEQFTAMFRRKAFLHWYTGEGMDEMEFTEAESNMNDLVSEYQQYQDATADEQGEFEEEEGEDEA

No constants are given. Whether binding was seen depends on the method and setting. Some binding calls cover weakened binding; strength is not graded here. Where a sequence is shown, tags or fusion partners need not be part of it.

Experiment [1] addresses T1, pure, pre-polymerized, taxol-stabilized microtubules of bovine tubulin (Cytoskeleton) (bovine) (UniProt P81947+Q6B856). As to the kind of experiment: in vitro microtubule co-sedimentation of in vitro translated GFP fusions, western blot. (Immunoblotting shows a protein as a band on a membrane.)
Experiment [2] deals with T1, pure, pre-polymerized, taxol-stabilized microtubules of bovine tubulin (Cytoskeleton) (bovine). As to the kind of experiment: microtubule co-sedimentation with purified protein, Coomassie gel (FIG. 4E).
Experiment [3] shares this target. Put plainly: microtubule co-sedimentation with purified protein and increasing microtubules.

B1: GFP fusion of CEP290 aa 580-1966 (protein, not shown: large carriers)
chain: TENISQGDRISERKLDLLSLKNMSEAQSKNEFLSRELIEKERDLERSRTVIAKFQNKLKELVEENKQLEEGMKEILQAIKEMQKDPDVKGGETSLIIPSLERLVNAIESKNAEGIFDASLHLKAQVDQLTGRNEELRQELRESRKEAINYSQQLAKANLKIDHLEKETSLLRQSEGSNVVFKGIDLPDGIAPSSASIINSQNEYLIHLLQELENKEKKLKNLEDSLEDYNRKFAVIRHQQSLLYKEYLSEKETWKTESKTIKEEKRKLEDQVQQDAIKVKEYNNLLNALQMDSDEMKKILAENSRKITVLQVNEKSLIRQYTTLVELERQLRKENEKQKNELLSMEAEVCEKIGCLQRFKEMAIFKIAALQKVVDNSVSLSELELANKQYNELTAKYRDILQKDNMLVQRTSNLEHLECENISLKEQVESINKELEITKEKLHTIEQAWEQETKLGNESSMDKAKKSITNSDIVSISKKITMLEMKELNERQRAEHCQKMYEHLRTSLKQMEERNFELETKFAELTKINLDAQKVEQMLRDELADSVSKAVSDADRQRILELEKNEMELKVEVSKLREISDIARRQVEILNAQQQSRDKEVESLRMQLLDYQAQSDEKSLIAKLHQHNVSLQLSEATALGKLESITSKLQKMEAYNLRLEQKLDEKEQALYYARLEGRNRAKHLRQTIQSLRRQFSGALPLAQQEKFSKTMIQLQNDKLKIMQEMKNSQQEHRNMENKTLEMELKLKGLEELISTLKDTKGAQKVINWHMKIEELRLQELKLNRELVKDKEEIKYLNNIISEYERTISSLEEEIVQQNKFHEERQMAWDQREVDLERQLDIFDRQQNEILNAAQKFEEATGSIPDPSLPLPNQLEIALRKIKENIRIILETRATCKSLEEKLKEKESALRLAEQNILSRDKVINELRLRLPATAEREKLIAELGRKEMEPKSHHTLKIAHQTIANMQARLNQKEEVLKKYQRLLEKAREEQREIVKKHEEDLHILHHRLELQADSSLNKFKQTAWDLMKQSPTPVPTNKHFIRLAEMEQTVAEQDDSLSSLLVKLKKVSQDLERQREITELKVKEFENIKLQLQENHEDEVKKVKAEVEDLKYLLDQSQKESQCLKSELQAQKEANSRAPTTTMRNLVERLKSQLALKEKQQKALSRALLELRAEMTAAAEERIISATSQKEAHLNVQQIVDRHTRELKTQVEDLNENLLKLKEALKTSKNRENSLTDNLNDLNNELQKKQKAYNKILREKEEIDQENDELKRQIKRLTSGLQGKPLTDNKQSLIEELQRKVKKLENQLEGKVEEVDLKPMKEKNAKEELIRWEEGKKWQAKIEGIRNKLKEKEGEVFTLTKQLNTLKDLFAKADKEKLTLQRKLKT
As for B1, in experiment [1], the binding result was “binds”.

B2: 6×His tagged CEP290 truncation M (aa 1695-1966), recombinantly expressed and purified (protein, not shown: small tags and cut ends)
chain: DQSQKESQCLKSELQAQKEANSRAPTTTMRNLVERLKSQLALKEKQQKALSRALLELRAEMTAAAEERIISATSQKEAHLNVQQIVDRHTRELKTQVEDLNENLLKLKEALKTSKNRENSLTDNLNDLNNELQKKQKAYNKILREKEEIDQENDELKRQIKRLTSGLQGKPLTDNKQSLIEELQRKVKKLENQLEGKVEEVDLKPMKEKNAKEELIRWEEGKKWQAKIEGIRNKLKEKEGEVFTLTKQLNTLKDLFAKADKEKLTLQRKLKT
With B2, the binding entry in experiment [2] and in experiment [3] was “binds” each time.

B3: GFP fusion of CEP290 aa 1695-1966 (region M) (protein, not shown: large carriers)
chain: B2 chain
In the case of B3, the binding result in experiment [1] is “binds”.
